Assay results published in US20030060416A1.
These are yes or no findings as the source states them, for the method shown. In cells and extracts the contact can be indirect. Some results given as binding are weak or reduced against the parent protein; the word gives no strength. Tags and fused reporters may be left off the sequences shown.

Protein sequences, listed by entry. Tags and fused reporters are not part of them.
UniProt Q07817: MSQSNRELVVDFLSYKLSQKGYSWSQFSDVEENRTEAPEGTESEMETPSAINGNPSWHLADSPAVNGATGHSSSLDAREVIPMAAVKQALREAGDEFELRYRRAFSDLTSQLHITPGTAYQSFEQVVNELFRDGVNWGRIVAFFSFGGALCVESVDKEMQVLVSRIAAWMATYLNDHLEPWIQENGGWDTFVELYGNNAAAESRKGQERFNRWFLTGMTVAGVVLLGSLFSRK
UniProt P10415: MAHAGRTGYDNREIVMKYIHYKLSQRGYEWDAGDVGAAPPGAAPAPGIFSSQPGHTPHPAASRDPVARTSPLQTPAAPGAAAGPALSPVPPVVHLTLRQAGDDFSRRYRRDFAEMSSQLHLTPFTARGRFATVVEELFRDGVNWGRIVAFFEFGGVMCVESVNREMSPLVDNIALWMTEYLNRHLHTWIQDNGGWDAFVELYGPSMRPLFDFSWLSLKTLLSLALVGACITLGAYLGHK

Legend:
[1] = biological target: T7-epitope tagged Bcl-xL (human) (UniProt Q07817); test: co-immunoprecipitation from 293 cells (anti-Flag IP, T7-antibody immunoblot)
[2] = biological target: T7-epitope tagged Bcl-2 (human) (UniProt P10415); test: as above
[3] = biological target: T7-epitope tagged Bcl-xL (human) (UniProt Q07817); test: co-immunoprecipitation from 293 cells (FIG. 5B legend)
[4] = biological target: T7-epitope tagged Bcl-2 (human) (UniProt P10415); test: as above
[5] = biological target: T7-epitope tagged Bcl-2 (human), P10415; test: as above; conditions: remark: other sources report otherwise
[6] = biological target: T7-epitope tagged Bcl-2 (human), P10415; test: co-immunoprecipitation from 293 cells (anti-Flag IP, T7-antibody immunoblot); conditions: remark: other sources report otherwise

Measured: binding

B1: Flag-epitope tagged Blk (protein, not shown: small tags and cut ends)
chain: MSEARLMARDVIKTVPHDQVPQPPVASETPSMKEPVRDVDLMECVEGRNQVALRLACIGDEMDLCLRSPRLVQLPGIAIHRLAVTYSRTGVRGIFRSLIRSLTNLRENIWSWRVLTPGAWVSPDQDPGQLFPMVLLVFLLLGGAWYLQLQ
binds: [1] | [2] | [3] | [4]

B2: Flag-epitope tagged Bik, Q13323 1-160 (protein, human, UniProt Q13323 1-160, looked up, not shown: small tags and cut ends)
chain: MSEVRPLSRDILMETLLYEQLLEPPTMEVLGMTDSEEDLDPMEDFDSLECMEGSDALALRLACIGDEMDVSLRAPRLAQLSEVAMHSLGLAFIYDQTEDIRDVLRSFMDGFTTLKENIMRFWRSPNPGSWVSCEQVLLALLLLLALLLPLLSGGLHLLLK
binds: [5] | [6]
